Results as given in PMC3506129 (Journal of Medicinal Chemistry, 2012).
Marks after values point to notes of the source that are not given here.

Settings: 10 mg/kg iv, 9 normalized from 5 mg/kg, 24 from 1 mg/kg, 20 from full PK

CNc1cc(Nc2cnc(C#N)c(O[C@@H]3CCNC3)n2)ncc1C(=O)OC [Compound 9]
mouse plasma level iv, 1 h (1 h): 877 (±215) ^f nM
mouse plasma level iv, 6 h (6 h): 74 (±19) ^f nM
